Results are given in words; binding and its absence hold for the method and conditions named. Binding seen in cells or lysates may run through a third protein. Some entries that bind do so weakly or less than the wild type. For part of these data: Sequences can lack the tags named with a protein.
Experiments:
human BiP (human) = human BiP (human) (UniProt P11021); assay: co-IP; human ERGIC2 or ERGIC3 with human BiP (S4B Fig); tags and precipitating antibody not given
HSP-4::Myc (C. elegans) = HSP-4::Myc (C. elegans) (UniProt P20163); assay: co-IP; HEK293T; HSP-4::Myc, UNC-9::GFP and Flag::ERGI-2 or Flag::ERGI-3 expressed together (Fig 6G, 6H); precipitating antibody not given

Chains of the proteins cited; added tags and fusions are not shown. Residues count along the entry.
UniProt P11021, residues 19-654: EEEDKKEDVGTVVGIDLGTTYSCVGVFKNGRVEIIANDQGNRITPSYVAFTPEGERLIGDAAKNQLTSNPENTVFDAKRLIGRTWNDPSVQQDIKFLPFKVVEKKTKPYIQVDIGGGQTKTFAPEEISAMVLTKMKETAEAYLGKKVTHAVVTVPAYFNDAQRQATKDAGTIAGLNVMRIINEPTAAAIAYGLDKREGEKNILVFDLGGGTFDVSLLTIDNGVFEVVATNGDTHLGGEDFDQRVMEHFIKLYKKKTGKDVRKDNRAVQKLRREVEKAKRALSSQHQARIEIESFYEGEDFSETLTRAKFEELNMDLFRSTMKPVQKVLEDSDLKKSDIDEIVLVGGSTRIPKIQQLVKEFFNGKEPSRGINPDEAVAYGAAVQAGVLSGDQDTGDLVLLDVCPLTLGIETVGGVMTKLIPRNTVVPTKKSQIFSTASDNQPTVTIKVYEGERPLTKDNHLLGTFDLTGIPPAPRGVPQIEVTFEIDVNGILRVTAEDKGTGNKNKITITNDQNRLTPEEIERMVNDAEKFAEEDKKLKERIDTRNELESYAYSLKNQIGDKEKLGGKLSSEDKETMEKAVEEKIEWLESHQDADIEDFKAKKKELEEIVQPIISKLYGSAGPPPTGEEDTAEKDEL
UniProt P20163, residues 18-657: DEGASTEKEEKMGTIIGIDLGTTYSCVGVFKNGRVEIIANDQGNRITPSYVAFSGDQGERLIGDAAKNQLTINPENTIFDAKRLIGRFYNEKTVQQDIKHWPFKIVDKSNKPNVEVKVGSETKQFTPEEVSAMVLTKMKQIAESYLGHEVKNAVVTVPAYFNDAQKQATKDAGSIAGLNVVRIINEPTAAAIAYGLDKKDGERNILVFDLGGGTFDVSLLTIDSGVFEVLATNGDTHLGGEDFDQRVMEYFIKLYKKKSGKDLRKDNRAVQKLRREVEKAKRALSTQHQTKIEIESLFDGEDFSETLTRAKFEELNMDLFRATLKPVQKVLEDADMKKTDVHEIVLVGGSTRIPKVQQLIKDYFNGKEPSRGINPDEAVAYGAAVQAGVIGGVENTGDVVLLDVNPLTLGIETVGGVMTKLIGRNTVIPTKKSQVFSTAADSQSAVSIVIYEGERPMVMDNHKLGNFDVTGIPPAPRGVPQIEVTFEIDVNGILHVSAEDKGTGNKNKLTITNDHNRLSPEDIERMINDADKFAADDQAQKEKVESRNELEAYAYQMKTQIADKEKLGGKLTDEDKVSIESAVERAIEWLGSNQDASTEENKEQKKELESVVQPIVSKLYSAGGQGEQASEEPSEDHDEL
UniProt Q9Y282: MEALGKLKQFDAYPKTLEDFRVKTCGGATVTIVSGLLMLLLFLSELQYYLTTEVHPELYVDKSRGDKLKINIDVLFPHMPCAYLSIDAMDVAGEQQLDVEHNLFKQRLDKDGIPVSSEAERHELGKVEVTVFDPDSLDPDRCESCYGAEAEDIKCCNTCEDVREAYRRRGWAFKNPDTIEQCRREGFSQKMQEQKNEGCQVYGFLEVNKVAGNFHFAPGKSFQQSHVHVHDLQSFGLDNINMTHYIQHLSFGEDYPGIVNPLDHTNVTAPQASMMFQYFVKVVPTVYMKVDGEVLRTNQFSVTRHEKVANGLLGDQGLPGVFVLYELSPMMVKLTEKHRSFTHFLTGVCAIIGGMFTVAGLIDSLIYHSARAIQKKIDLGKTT

binding (human BiP (human))	binding (HSP-4::Myc (C. elegans))	Molecule
binds		human ERGIC3 (from UniProt Q9Y282 1-383)
	binds	UNC-9::GFP (protein, UniProt O01393 1-386) MSMLLYYFASAVKSIQFHVDDDIIDKLNYYYTTAIITVFAILVSAKQYVGFPIQCWVPATFTEPMEQYTENYCWVQNTYFLPLHDYIPHNYAERENRQIGYYQWVPFVLALEALLFYVPTIVWRLLSWQSGIHVQSLVQMACDSRLLDLESRNRALQTIATNVEEALHVKHQVMSGNRLKLLNLIICTRSSGAAVTFLYISVKILYTVNIVGQIFLLNTFLGNRSKWYGLQVLNDLMNGREWEESGHFPRVTLCDFEVKVLGNVHRHTVQCVLMINMFNEKIFLFLWFWYFLLAGATLCSLFYWIYISVVPSRQLNFVGKYLTGIEGYKMVDSQSLRRFVFHFLRQDGVFLLRMVATHAGELPCYELAKTLWNNYCDNKEGKMHDV
binds		human ERGIC2 (protein, UniProt Q96RQ1 1-377) MRRLNRKKTLSLVKELDAFPKVPESYVETSASGGTVSLIAFTTMALLTIMEFSVYQDTWMKYEYEVDKDFSSKLRINIDITVAMKCQYVGADVLDLAETMVASADGLVYEPTVFDLSPQQKEWQRMLQLIQSRLQEEHSLQDVIFKSAFKSTSTALPPREDDSSQSPNACRIHGHLYVNKVAGNFHITVGKAIPHPRGHAHLAALVNHESYNFSHRIDHLSFGELVPAIINPLDGTEKIAIDHNQMFQYFITVVPTKLHTYKISADTHQFSVTERERIINHAAGSHGVSGIFMKYDLSSLMVTVTEEHMPFWQFFVRLCGIVGGIFSTTGMLHGIGKFIVEIICCRFRLGSYKPVNSVPFEDGHTDNHLPLLENNTH

Reference: publication PMC13568704
